Assay results as given in patent US8759324B2 (priority 2006, dated 2014).
Entries after “also recorded” stand apart in the source; their conditions may differ. At least one structure is not confirmed: it was looked up by name or label, or the drawing left a doubt. Some results were stated once for a whole list of compounds, not compound by compound.

SMILES | hydroxylation of cyclophosphamide / catalytic potency (in words, FIG. 2) | increase of yield of 4-OHCP in pH 5.5 medium
C[n+]1ccccc1-c1c2nc(c(-c3cccc[n+]3C)c3ccc([n-]3)c(-c3cccc[n+]3C)c3nc(c(-c4cccc[n+]4C)c4ccc1[n-]4)C=C3)C=C2.[Mn+3] [MnTM-2-PyP^5+, Mn(III) tetrakis(N-methylpyridinium-2-yl)porphyrin] | inferior as catalysts to their Fe(III) analogue FeTM-2-PyP^5+ | 
C[n+]1cccc(-c2c3nc(c(-c4ccc[n+](C)c4)c4ccc([n-]4)c(-c4ccc[n+](C)c4)c4nc(c(-c5ccc[n+](C)c5)c5ccc2[n-]5)C=C4)C=C3)c1.[Mn+3] [MnTM-3-PyP^5+, Mn(III) tetrakis(N-methylpyridinium-3-yl)porphyrin] | inferior as catalysts to their Fe(III) analogue FeTM-2-PyP^5+; also recorded: higher catalytic potency | 
C[n+]1ccccc1-c1c2nc(c(-c3cccc[n+]3C)c3ccc([n-]3)c(-c3cccc[n+]3C)c3nc(c(-c4cccc[n+]4C)c4ccc1[n-]4)C=C3)C=C2.[Fe+3] [FeTM-2-PyP^5+, Fe(III) tetrakis(N-methylpyridinium-2-yl)porphyrin] | less potent than difluoro- and dichloroporphyrin | up to 3 fold
